According to publication PMC8651674:
No signal at the amounts used counts as a negative. At least one verdict was read from the data and is not stated in words by the source. Where a protein sequence is shown, tags need not be part of it.

Columns and labels:
[1] = molecular target: T1, RNase B (RB), N-glycosylated (UniProt P61823); assay: bead-based flow cytometry; details: 20 µM protein, negative control; RB: 20 mM Tris-HCl, 120 mM NaCl, 5 mM KCl, 1 mM MgCl2, 1 mM CaCl2, 0.01% Tween-20, RT, 45 min (MST 1 h); fetuin: 20 mM Tris-HCl pH 7.5, 100 mM NaCl, 2 mM MgCl2, 5 mM KCl; commercial protein; label: bead; single-stranded DNA
T1 sequence (looked up, limits assumed): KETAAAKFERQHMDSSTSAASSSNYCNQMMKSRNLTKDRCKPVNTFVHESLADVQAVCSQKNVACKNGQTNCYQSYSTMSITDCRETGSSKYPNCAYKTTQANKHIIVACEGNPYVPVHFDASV

fetuin = molecular target: T2, fetuin (UniProt P12763); assay: bead-based flow cytometry; details: 1 µM protein, negative control, RB: 20 mM Tris-HCl, 120 mM NaCl, 5 mM KCl, 1 mM MgCl2, 1 mM CaCl2, 0.01% Tween-20, RT, 45 min (MST 1 h), fetuin: 20 mM Tris-HCl pH 7.5, 100 mM NaCl, 2 mM MgCl2, 5 mM KCl, commercial protein, protein details: Dylight 650 label in bead assays, unlabeled in MST, single-stranded DNA
T2 sequence (looked up, limits assumed): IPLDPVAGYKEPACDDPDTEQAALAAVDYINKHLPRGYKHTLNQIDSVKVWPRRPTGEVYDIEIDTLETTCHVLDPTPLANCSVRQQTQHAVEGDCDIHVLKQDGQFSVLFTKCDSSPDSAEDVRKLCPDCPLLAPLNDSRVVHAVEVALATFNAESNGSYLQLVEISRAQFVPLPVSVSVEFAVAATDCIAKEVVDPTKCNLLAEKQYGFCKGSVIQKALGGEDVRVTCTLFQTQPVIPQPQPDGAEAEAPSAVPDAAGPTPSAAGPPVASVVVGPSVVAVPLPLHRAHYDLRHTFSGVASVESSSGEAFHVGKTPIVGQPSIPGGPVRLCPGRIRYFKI

**Q.** Does “AGCAGCACAGAGGTCAGATG [FP (RB forward primer)]” bind [1]?
**A.** Result: no binding

**Q.** Does “CCAGCGAGCCAGCGAC [Fet FP (fetuin forward primer)]” bind (fetuin)?
**A.** Result: no binding
